Data taken from the supplement of paper PMC12067093, “Discovery and optimisation of a covalent ligand for TRIM25 and its application to targeted protein ubiquitination” (Chemical Science, 2025).
This is one part of the list.

Compound: CC1Cc2ccccc2N1C(=O)C1CCCN(C1)C(=O)CCl (mixture of isomers) [TRIM25 ligand 11 (diastereomer mixture)]
Assay: probe-labelled cysteine peptide fold change vs DMSO (competition) (log2 fold change); higher = less target engagement (more negative = stronger competition)
Details: THP-1, incubation time: 4 h
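Further: competitive chemoproteomic profiling in live THP-1 cells with an iodoacetamide desthiobiotin (IA-DTB) probe, comparing probe-labelled peptide intensities in compound-treated cells against DMSO-treated controls.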

Row | Target | probe-labelled cysteine peptide fold change (10 µM) | probe-labelled cysteine peptide fold change (50 µM)
1 | PXN_P49023_384+387_TWHPEHFVCTHCQEEIGSR (UniProt P49023) | 0.000376 | -0.00391
2 | RAC1_P63000_105_HHCPNTPIILVGTK (UniProt P63000) | -0.0211 | -0.12
3 | PXK_Q7Z7A4_112_GLQNYLNVITTNHILSNCELVK (UniProt Q7Z7A4) | 0.115 | 0.106
4 | RAB33A_Q14088_197_ESQNVESIFMCLACR (UniProt Q14088) | 0.0997 | -0.163
5 | PURA_Q00577_272_FGHTFCK (UniProt Q00577) | -0.114 | -0.0787
6 | RAB43_Q86YS6_157_EVSLAEAQSLAEHYDILCAIETSAK (UniProt Q86YS6) | 0.187 | 0.0292
7 | RABGAP1L_Q5R372_139_LTYLGCMK (UniProt Q5R372) | 0.1 | 0.0681
8 | RAB3GAP2_Q9H2M9_792+793_DILDKPQSICCLHTMLSLLSK (UniProt Q9H2M9) | 0.000932 | -0.0923
9 | PYGB_P11216_808_NIACSGK (UniProt P11216) | -0.111 | 0.0888
10 | PUM1_Q14671_980_CIECVQPQSLQFIIDAFK (UniProt Q14671) | 0.0374 | 0.226
11 | PXK_Q7Z7A4_204_LLPSCLHPYIYR (UniProt Q7Z7A4) | 0.145 | 0.0873
12 | PYGB_P11216_326_TCFETFPDK (UniProt P11216) | -0.162 | -0.207
13 | QSOX1_O00391_165_LIDALESHHDTWPPACPPLEPAKLEEIDGFFAR (UniProt O00391) | 0.157 | -0.0652
14 | PURB_Q96QR8_238_FFFDVGCNK (UniProt Q96QR8) | -0.0401 | 0.111
15 | PUS7_Q96PZ0_258_GSYCHFVLYK (UniProt Q96PZ0) | -0.0631 | -0.0195
16 | PUS3_Q9BZE2_420_CQGLESR (UniProt Q9BZE2) | -0.0795 | -0.127
17 | QSOX1_O00391_393_VNWIGCQGSEPHFR (UniProt O00391) | 0.112 | 0.186
18 | RABGAP1_Q9Y3P9_941_QICSQLSER (UniProt Q9Y3P9) | 0.0108 | -0.0997
19 | PYGL_P06737_446_RINMAHLCIVGSHAVNGVAK (UniProt P06737) | -0.16 | 0.02
20 | QARS_P47897_111_ECGVGVIVTPEQIEEAVEAAINR (UniProt P47897) | 0.235 | -0.211
21 | RAB11FIP1_Q6WKZ4_1028_LVLGEGLCDFR (UniProt Q6WKZ4) | -0.216 | -0.316

Row | Target | probe-labelled cysteine peptide fold change (10 µM) | probe-labelled cysteine peptide fold change (50 µM)
22 | RAB7A_P51149_83_GADCCVLVFDVTAPNTFK (UniProt P51149) | 0.108 | 0.0904
23 | PXN_P49023_108_TSSVSNPQDSVGSPCSR (UniProt P49023) | -0.146 | -0.228
24 | RABEPK_Q7Z6M1_243_LNPTGAAPAGCAAHSAVAMGK (UniProt Q7Z6M1) | 0.107 | 0.0284
25 | QARS_P47897_665_GPSGCVESLEVTCR (UniProt P47897) | 0.201 | 0.297
26 | RAD50_Q92878_102_SMVCTQK (UniProt Q92878) | -0.105 | 0.109
27 | RABEPK_Q7Z6M1_29_ATWYTLTVPGDSPCAR (UniProt Q7Z6M1) | 0.0173 | -0.17
28 | RACK1_P63244_207_TNHIGHTGYLNTVTVSPDGSLCASGGKDGQAMLWDLNEGK (UniProt P63244) | -0.484 | -0.388
29 | RAB7A_P51149_83+84_GADCCVLVFDVTAPNTFK (UniProt P51149) | 0.123 | -0.0351
30 | RAD50_Q92878_1296_NIDQCSEIVK (UniProt Q92878) | -0.117 | -0.0187
31 | RAB3IL1_Q8TBN0_29_STDPCQGHR (UniProt Q8TBN0) | -0.119 | -0.315
32 | RABGAP1L_Q5R372_665_NNFEDLHCK (UniProt Q5R372) | 0.206 | 0.214
33 | RAB8A_P61006_123_CDVNDKR (UniProt P61006) | -0.067 | -0.109
34 | RACK1_P63244_153_YTVQDESHSEWVSCVR (UniProt P63244) | 0.0663 | 0.204
35 | PYGB_P11216_437_MSVIEEGDCKR (UniProt P11216) | -0.132 | -0.148
36 | PWP2_Q15269_158_CFVVGSK (UniProt Q15269) | 0.189 | 0.0718
37 | QRSL1_Q9H0R6_278_LCIGIPK (UniProt Q9H0R6) | 0.0202 | 0.097
38 | PYCR2_Q96C36_225_MLLDSEQHPCQLK (UniProt Q96C36) | 0.0577 | -0.0151
39 | QSOX1_O00391_101+110_AWRPALYLAALDCAEETNSAVCR (UniProt O00391) | 0.0972 | -0.0278
40 | RABGGTA_Q92696_145_NFHCWDYR (UniProt Q92696) | 0.176 | 0.0301
41 | RAB3IL1_Q8TBN0_97_LKDEECER (UniProt Q8TBN0) | -0.0448 | -0.0486
42 | RAB18_Q9NP72_155+160_TCDGVQCAFEELVEK (UniProt Q9NP72) | 0.265 | -0.0579

Row | Target | probe-labelled cysteine peptide fold change (10 µM) | probe-labelled cysteine peptide fold change (50 µM)
43 | RAB44_Q7Z6P3_950_MDCEEER (UniProt Q7Z6P3) | 0.176 | 0.106
44 | RAC2_P15153_178_AVLCPQPTR (UniProt P15153) | -0.119 | -0.058
45 | PUM3_Q15397_185_VIQCYIQYGNEEQR (UniProt Q15397) | -0.00291 | 0.0703
46 | QARS_P47897_445_WCIYPTYDYTHCLCDSIEHITHSLCTK (UniProt P47897) | 0.0915 | -0.0265
47 | RAB36_O95755_247_DLLSGAACEQAEADAVHLAR (UniProt O95755) | -0.392 | 0.0759
48 | RABL6_Q3YEC7_140_NCNGVVMMFDITK (UniProt Q3YEC7) | 0.00811 | 0.0107
49 | RABGAP1L_Q5R372_330_CFGMLLSPGR (UniProt Q5R372) | -0.0577 | 0.23
50 | RACK1_P63244_249_YWLCAATGPSIK (UniProt P63244) | 0.0864 | 0.0566
51 | RABGEF1_Q9UJ41_359_RDLSIEEQSECAQDFYHNVAER (UniProt Q9UJ41) | 0.648 | -0.0585
52 | RAD51B_O15315_32_HQILTCQDFLCLSPLELMK (UniProt O15315) | -0.0981 | -0.12
53 | PYCR1_P32322_120_CMTNTPVVVR (UniProt P32322) | 0.0536 | 0.0496
54 | RAD51B_O15315_27_HQILTCQDFLCLSPLELMK (UniProt O15315) | 0.0744 | 0.194
55 | UniProt Q8N1Y9_Q8N1Y9_79_GCLPGK | -0.184 | 0.0174
56 | QARS_P47897_433+445+456_WCIYPTYDYTHCLCDSIEHITHSLCTK (UniProt P47897) | 0.248 | 0.0569
57 | PWP1_Q13610_154_DTEQYEREDFLIKPSDNLIVCGR (UniProt Q13610) | -0.117 | -0.216
58 | RABGGTA_Q92696_302_NRPSHVWLCDLPAASLNDQLPQHTFR (UniProt Q92696) | 0.0743 | 0.0232
59 | PXN_P49023_561_FHPEHFVCAFCLK (UniProt P49023) | -0.0786 | 0.0176
60 | RAB11FIP1_Q6WKZ4_1007_SSTLDIGALSLGLVVPCPER (UniProt Q6WKZ4) | 0.000553 | 0.0263
61 | RAB3GAP2_Q9H2M9_391_HGESICLSPCNTLAAVTDDFGR (UniProt Q9H2M9) | -0.212 | -0.23
62 | RAB3D_O95716_137_CDLEDERVVPAEDGRR (UniProt O95716) | -0.117 | 0.0593
63 | PUM2_Q8TB72_813_GHVLPLALQMYGCR (UniProt Q8TB72) | -0.125 | 0.0423

Part of the list above, with each value named.
RAD51B_O15315_27_HQILTCQDFLCLSPLELMK (UniProt O15315)
  probe-labelled cysteine peptide fold change (10 µM) = 0.0744
  probe-labelled cysteine peptide fold change (50 µM) = 0.194
UniProt Q8N1Y9_Q8N1Y9_79_GCLPGK
  probe-labelled cysteine peptide fold change (10 µM) = -0.184
  probe-labelled cysteine peptide fold change (50 µM) = 0.0174

Next part.

Row | Target | probe-labelled cysteine peptide fold change (10 µM) | probe-labelled cysteine peptide fold change (50 µM)
64 | RABGGTA_Q92696_457_DLTVLCHLEQLLLVTHLDLSHNR (UniProt Q92696) | 0.188 | 0.151
65 | RABEP2_Q9H5N1_372_CLHHEVK (UniProt Q9H5N1) | -0.0845 | -0.144
66 | RAB14_P61106_40_KFMADCPHTIGVEFGTR (UniProt P61106) | -0.029 | -0.0399
67 | R3HCC1_Q9Y3T6_94_VPSSDGLSGPCR (UniProt Q9Y3T6+R3HCC1) | -0.0332 | 0.125
68 | RAB21_Q9UL25_29_VVLLGEGCVGK (UniProt Q9UL25) | 0.19 | 0.224
69 | QARS_P47897_687_AFIHWVSQPLMCEVR (UniProt P47897) | -0.0924 | -0.0962
70 | RAB8B_Q92930_123_CDMNDK (UniProt Q92930) | 0.145 | -0.0101
71 | PUS10_Q3MIT2_223_SLFEVSVVFAHPETVEDCHFLAAICPDCFKPAK (UniProt Q3MIT2) | -0.0133 | -0.0105
72 | PWP1_Q13610_9_QVTCVAWVR (UniProt Q13610) | -0.258 | -0.313
73 | RABGAP1_Q9Y3P9_346_CFGLLLSPGK (UniProt Q9Y3P9) | -0.13 | -0.0597
74 | RAB43_Q86YS6_157_SDLSELREVSLAEAQSLAEHYDILCAIETSAK (UniProt Q86YS6) | -0.241 | -0.328
75 | RAB23_Q9ULC3_130_IDLLDDSCIK (UniProt Q9ULC3) | 0.234 | 0.173
76 | PUS7L_Q9H0K6_207_ELCHLVSEEEAFDFFK (UniProt Q9H0K6) | 0.208 | 0.0692
77 | PUS7_Q96PZ0_319_CLMNFK (UniProt Q96PZ0) | -0.123 | 0.0529
78 | UniProt Q6ZSR9_Q6ZSR9_251_GSCLESGGHSNDR | 0.0287 | -0.245
79 | QARS_P47897_556_VGVTVAQTTMEPHLLEACVR (UniProt P47897) | 0.0673 | 0.0826
80 | RAB29_O14966_120_LTLPNGEPVPCLLLANK (UniProt O14966) | -0.0261 | 0.0593
81 | PWP2_Q15269_863_LCSWNHYNMQYALAVSK (UniProt Q15269) | 0.0991 | 0.0966
82 | QSOX1_O00391_110_AWRPALYLAALDCAEETNSAVCR (UniProt O00391) | -0.00148 | 0.238
83 | PYGL_P06737_581_QLLNCLHVITMYNR (UniProt P06737) | 0.0137 | 0.135
84 | RAB3D_O95716_137_CDLEDERVVPAEDGR (UniProt O95716) | 0.251 | 0.0747

Laid out differently: entries from further up
Row,Target,probe-labelled cysteine peptide fold change (10 µM),probe-labelled cysteine peptide fold change (50 µM)
31,RAB3IL1_Q8TBN0_29_STDPCQGHR (UniProt Q8TBN0),-0.119,-0.315
45,PUM3_Q15397_185_VIQCYIQYGNEEQR (UniProt Q15397),-0.00291,0.0703
54,RAD51B_O15315_27_HQILTCQDFLCLSPLELMK (UniProt O15315),0.0744,0.194
55,UniProt Q8N1Y9_Q8N1Y9_79_GCLPGK,-0.184,0.0174
65,RABEP2_Q9H5N1_372_CLHHEVK (UniProt Q9H5N1),-0.0845,-0.144
